± gives the standard deviation of the averaged measurements. The entries are a selection whose mix differs from that of the whole data set. Most values lie at the level of the controls, where differences are scatter.

By UniProt entry, the sequences of proteins in these tests, tags left out. Where a name states a change or a piece, a line headed by the entry shows the natural chain unless it says otherwise.
UniProt Q9Y294, whole entry: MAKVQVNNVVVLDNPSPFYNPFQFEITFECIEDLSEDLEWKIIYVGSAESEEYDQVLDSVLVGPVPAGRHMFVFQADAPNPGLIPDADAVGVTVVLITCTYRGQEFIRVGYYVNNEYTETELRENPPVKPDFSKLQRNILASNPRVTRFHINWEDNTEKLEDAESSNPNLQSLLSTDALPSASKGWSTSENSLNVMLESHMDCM
UniProt Q9UK45: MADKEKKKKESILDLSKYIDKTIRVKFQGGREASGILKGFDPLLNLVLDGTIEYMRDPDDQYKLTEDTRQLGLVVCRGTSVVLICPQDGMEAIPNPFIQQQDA
UniProt Q9UHB9: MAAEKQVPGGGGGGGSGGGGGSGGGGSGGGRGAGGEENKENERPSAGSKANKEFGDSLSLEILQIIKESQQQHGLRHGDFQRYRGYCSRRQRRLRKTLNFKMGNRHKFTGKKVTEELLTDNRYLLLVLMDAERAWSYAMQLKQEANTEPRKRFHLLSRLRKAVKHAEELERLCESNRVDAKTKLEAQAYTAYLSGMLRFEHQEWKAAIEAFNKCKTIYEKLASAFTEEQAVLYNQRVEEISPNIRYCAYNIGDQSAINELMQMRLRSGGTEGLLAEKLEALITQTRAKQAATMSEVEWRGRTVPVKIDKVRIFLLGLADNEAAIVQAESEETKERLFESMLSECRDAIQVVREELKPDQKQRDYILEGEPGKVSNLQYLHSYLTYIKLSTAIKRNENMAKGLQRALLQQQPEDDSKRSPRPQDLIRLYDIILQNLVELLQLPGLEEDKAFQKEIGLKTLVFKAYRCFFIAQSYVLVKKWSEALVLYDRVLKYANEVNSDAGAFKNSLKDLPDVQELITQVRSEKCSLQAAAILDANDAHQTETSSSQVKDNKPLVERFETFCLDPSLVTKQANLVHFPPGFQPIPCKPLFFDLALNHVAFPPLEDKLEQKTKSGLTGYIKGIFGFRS
UniProt Q9UPT9: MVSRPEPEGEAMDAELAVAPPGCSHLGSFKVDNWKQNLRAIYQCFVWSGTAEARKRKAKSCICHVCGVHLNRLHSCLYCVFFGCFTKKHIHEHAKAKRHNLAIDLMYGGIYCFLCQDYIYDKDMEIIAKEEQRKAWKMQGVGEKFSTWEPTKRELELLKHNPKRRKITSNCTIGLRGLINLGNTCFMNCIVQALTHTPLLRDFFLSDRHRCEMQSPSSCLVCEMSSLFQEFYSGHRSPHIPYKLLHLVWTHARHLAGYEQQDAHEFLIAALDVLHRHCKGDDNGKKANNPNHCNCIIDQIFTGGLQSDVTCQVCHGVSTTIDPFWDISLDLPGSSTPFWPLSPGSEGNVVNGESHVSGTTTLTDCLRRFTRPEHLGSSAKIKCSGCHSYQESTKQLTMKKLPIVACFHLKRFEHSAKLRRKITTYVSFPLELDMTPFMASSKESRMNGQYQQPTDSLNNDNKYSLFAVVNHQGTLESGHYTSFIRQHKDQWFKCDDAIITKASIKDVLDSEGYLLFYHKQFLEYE
UniProt Q9UP83: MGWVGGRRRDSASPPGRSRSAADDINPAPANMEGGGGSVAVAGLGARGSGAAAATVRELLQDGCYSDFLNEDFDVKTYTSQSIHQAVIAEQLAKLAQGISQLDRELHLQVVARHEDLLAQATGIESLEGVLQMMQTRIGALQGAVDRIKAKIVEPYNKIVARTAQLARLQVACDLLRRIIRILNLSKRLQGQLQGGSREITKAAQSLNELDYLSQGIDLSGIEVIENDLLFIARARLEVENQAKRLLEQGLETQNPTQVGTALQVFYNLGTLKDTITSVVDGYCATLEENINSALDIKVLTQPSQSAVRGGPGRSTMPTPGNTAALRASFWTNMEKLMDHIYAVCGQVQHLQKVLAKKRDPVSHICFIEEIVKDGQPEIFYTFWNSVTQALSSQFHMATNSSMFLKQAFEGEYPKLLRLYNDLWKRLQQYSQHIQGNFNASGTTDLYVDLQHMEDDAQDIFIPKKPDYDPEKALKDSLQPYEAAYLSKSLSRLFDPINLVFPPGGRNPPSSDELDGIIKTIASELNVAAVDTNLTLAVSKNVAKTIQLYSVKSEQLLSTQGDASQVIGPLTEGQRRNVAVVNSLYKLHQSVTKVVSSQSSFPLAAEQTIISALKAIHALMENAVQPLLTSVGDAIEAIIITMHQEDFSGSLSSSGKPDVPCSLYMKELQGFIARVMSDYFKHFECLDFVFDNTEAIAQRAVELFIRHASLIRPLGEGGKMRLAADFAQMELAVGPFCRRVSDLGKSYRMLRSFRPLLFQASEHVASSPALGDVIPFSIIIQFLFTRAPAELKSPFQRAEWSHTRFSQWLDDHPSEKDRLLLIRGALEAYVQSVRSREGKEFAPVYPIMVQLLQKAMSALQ
UniProt Q9UJX3, whole entry: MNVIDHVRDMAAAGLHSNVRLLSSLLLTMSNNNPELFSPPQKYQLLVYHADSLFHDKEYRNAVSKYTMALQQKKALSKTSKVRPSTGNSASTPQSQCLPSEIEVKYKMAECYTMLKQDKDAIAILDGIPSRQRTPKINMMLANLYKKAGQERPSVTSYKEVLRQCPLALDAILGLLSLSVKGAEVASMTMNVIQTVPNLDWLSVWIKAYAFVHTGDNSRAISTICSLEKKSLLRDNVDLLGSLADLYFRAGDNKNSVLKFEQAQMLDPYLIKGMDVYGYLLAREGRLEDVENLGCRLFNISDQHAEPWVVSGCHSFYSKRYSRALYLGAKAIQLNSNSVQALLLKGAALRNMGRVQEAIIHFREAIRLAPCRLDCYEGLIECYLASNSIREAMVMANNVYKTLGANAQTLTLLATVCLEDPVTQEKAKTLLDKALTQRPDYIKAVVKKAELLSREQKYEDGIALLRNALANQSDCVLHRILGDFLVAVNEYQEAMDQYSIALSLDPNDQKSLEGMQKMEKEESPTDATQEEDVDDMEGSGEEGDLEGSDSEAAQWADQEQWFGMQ
UniProt Q9UL40: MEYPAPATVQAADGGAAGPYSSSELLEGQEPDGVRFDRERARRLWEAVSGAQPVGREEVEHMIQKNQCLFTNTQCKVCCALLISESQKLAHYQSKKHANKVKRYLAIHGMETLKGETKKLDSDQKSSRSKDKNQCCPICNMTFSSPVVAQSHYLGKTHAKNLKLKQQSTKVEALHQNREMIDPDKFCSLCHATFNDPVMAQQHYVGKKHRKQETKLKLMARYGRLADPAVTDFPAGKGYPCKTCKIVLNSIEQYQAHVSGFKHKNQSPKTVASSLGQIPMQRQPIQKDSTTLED
UniProt Q9UHD9, whole entry: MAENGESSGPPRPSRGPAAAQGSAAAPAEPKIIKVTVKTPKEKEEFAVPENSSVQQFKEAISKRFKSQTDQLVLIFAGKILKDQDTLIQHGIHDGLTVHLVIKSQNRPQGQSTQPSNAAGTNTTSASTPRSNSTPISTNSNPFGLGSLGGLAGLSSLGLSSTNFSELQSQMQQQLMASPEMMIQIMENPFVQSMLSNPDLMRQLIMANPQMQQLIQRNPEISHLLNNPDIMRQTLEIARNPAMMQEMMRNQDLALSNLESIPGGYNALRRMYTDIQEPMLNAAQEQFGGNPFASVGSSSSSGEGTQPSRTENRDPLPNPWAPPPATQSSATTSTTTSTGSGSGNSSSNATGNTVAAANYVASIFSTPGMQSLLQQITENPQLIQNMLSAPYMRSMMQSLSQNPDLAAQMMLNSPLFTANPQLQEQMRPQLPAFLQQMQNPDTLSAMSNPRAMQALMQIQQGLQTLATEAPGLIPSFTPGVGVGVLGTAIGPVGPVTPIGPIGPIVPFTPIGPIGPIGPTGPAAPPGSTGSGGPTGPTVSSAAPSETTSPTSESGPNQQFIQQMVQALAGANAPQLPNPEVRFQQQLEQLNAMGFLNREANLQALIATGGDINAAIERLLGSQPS
UniProt Q9UEU0: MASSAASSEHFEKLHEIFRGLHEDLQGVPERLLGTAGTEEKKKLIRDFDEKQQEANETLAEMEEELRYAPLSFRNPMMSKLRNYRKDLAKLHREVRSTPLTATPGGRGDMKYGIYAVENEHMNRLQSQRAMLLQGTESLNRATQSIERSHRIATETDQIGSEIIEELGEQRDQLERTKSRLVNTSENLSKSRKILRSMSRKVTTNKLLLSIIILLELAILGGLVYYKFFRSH
UniProt Q9UBM7: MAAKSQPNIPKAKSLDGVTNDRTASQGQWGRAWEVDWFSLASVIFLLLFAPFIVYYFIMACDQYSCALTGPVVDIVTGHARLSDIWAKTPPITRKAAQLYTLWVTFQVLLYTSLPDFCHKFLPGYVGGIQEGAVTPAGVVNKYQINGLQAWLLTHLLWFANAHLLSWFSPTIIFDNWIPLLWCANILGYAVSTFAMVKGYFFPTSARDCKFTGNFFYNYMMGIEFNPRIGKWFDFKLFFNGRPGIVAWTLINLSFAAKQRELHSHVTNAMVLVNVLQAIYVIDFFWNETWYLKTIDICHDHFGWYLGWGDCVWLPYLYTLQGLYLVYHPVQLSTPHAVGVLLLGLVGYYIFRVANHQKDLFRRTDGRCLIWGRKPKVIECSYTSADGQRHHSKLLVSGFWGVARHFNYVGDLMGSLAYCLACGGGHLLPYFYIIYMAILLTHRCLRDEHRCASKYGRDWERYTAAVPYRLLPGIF
UniProt Q9UNA1: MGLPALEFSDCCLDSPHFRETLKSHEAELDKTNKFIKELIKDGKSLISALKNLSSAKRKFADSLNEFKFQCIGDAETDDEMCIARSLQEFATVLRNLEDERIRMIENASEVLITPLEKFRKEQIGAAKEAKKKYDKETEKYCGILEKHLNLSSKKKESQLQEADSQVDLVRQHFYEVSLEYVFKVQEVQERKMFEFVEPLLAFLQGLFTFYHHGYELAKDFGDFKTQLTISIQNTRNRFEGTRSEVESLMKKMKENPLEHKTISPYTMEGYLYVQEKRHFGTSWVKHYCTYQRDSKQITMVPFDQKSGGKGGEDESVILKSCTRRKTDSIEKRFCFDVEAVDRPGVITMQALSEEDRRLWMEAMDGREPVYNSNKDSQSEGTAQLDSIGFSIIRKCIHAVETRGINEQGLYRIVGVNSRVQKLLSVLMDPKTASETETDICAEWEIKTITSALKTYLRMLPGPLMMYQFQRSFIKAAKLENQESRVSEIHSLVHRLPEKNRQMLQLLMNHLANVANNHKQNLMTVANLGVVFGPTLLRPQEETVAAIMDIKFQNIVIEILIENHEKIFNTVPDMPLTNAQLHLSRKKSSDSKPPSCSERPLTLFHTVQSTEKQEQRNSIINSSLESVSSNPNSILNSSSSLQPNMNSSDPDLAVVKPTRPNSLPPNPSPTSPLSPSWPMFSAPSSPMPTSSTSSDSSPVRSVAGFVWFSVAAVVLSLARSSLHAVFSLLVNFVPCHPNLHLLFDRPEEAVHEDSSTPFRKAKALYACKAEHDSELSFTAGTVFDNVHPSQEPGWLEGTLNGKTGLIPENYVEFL
UniProt Q9ULC4: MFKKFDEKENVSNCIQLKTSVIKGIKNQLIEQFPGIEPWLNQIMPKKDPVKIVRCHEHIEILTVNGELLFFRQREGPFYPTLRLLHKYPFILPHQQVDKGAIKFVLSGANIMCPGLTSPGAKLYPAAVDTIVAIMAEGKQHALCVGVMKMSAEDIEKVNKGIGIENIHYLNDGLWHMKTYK
UniProt Q9UI12, whole entry: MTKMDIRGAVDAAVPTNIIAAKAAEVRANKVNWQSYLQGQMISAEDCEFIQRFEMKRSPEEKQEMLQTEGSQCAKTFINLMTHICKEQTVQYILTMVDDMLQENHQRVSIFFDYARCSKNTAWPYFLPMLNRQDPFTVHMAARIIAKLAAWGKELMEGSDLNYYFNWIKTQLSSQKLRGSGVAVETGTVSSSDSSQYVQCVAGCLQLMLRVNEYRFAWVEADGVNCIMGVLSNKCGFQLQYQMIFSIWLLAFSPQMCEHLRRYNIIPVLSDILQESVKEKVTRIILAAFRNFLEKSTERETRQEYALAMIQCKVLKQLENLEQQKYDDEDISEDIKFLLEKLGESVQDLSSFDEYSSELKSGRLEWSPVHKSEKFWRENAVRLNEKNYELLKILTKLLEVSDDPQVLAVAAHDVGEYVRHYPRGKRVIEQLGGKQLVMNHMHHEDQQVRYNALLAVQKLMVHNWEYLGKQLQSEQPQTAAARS
UniProt Q9UJ70, whole entry: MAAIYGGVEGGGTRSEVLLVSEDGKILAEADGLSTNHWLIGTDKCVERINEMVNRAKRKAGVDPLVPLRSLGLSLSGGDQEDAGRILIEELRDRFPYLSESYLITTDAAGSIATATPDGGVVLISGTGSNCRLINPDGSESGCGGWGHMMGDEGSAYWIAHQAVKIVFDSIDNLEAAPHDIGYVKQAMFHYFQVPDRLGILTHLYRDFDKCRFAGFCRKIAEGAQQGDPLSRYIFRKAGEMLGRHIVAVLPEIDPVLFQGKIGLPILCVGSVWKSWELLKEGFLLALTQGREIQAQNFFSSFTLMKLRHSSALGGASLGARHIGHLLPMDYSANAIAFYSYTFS
UniProt Q9UBK7: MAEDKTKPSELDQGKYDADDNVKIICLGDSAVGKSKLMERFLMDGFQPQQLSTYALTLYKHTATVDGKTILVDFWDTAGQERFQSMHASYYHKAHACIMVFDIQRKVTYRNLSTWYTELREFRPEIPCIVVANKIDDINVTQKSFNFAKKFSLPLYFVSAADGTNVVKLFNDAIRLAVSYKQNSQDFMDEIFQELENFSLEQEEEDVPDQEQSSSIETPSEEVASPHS

Compound in the assay: Nc1ncnc2c1ncn2[C@@H]1O[C@H](COP(=O)(O)OP(=O)(O)OP(=O)(O)O)[C@@H](O)[C@H]1O [adenosine triphosphate]
Description: NP40-soluble protein abundance relative to vehicle (solubility fold change) (ratio); higher = more soluble protein in presence of ATP. As to conditions: concentration: 0.1mM. The procedure, abridged:
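In three independent experiments, Jurkat crude lysate made by Dounce homogenisation was treated for 10 min at room temperature and then 3 min at 37 °C with eight concentrations ranging from 0.1 to 10 mM. It was then solubilised with 0.8% NP40 plus benzonase for 60 min at 4 °C and ultracentrifuged. The supernatant was TMT-labelled for LC-MS/MS, and each value is the fold change against the detergent-processed vehicle for the same replicate, using vsn-normalised intensities.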
In the case of UniProt Q9UKV8, the NP40-soluble protein abundance stood at 1.06 ± 0.051.
The value for ASF1A (UniProt Q9Y294) was 1.08 ± 0.12; that for LSM7 (UniProt Q9UK45) was 0.946 ± 0.022.
Then SRP68 (UniProt Q9UHB9), with 1 ± 0.0054; and GPATCH8 (UniProt Q9UKJ3), with 1.07 ± 0.027; and UniProt Q9UHP3 and related entries, with 0.941 ± 0.083.
The value for UniProt Q9UBH6 and related entries was 0.9954 ± 0.0056.
Regarding UniProt Q9UPT9 and related entries, the NP40-soluble protein abundance stood at 1.02 ± 0.051.
The value for LRWD1 (UniProt Q9UFC0) was 1.03 ± 0.051; that for UniProt Q9UP83 and related entries was 0.983 ± 0.051; that for ANAPC7 (UniProt Q9UJX3) was 0.983 ± 0.033.
The value for UniProt Q9UL40 and related entries was 0.976 ± 0.044; that for AKAP11 (UniProt Q9UKA4) was 1.01 ± 0.021; that for AP4E1 (UniProt Q9UPM8) was 1.08 ± 0.017.
Regarding POLK (UniProt Q9UBT6), the NP40-soluble protein abundance turned out to be 0.962 ± 0.057.
The value for DCTN4 (UniProt Q9UJW0) was 1.02 ± 0.018; that for COPS7A (UniProt Q9UBW8) was 0.995 ± 0.04; that for UniProt Q9UIS9 and related entries was 1.01 ± 0.043.
The value for ZMIZ1 (UniProt Q9ULJ6) was 1.03 ± 0.12; that for CGN (UniProt Q9P2M7) was 1.057 ± 0.004; that for UXT (UniProt Q9UBK9) was 0.941 ± 0.082.
With UBQLN2 (UniProt Q9UHD9), the NP40-soluble protein abundance is 0.876 ± 0.088.
Turning to UniProt Q9UHL0 and related entries, the NP40-soluble protein abundance stood at 1.02 ± 0.073.
Then VTI1B (UniProt Q9UEU0), with 0.959 ± 0.042.
Take ARPP21 (UniProt Q9UBL0): the NP40-soluble protein abundance worked out at 0.981 ± 0.025.
Then UniProt Q9UBP0 and related entries, with 1.01 ± 0.028; and DHCR7 (UniProt Q9UBM7), with 1.01 ± 0.048.
The value for SCML2 (UniProt Q9UQR0) was 1 ± 0.016; that for UniProt Q9UNA1 and related entries was 1.05 ± 0.066; that for AMFR (UniProt Q9UKV5) was 1.06 ± 0.018.
UniProt Q9UJV9 and related entries: the NP40-soluble protein abundance is 1.09 ± 0.019.
Then UniProt Q9ULC4 and related entries, with 1 ± 0.039.
Turning to UniProt Q9UPW0 and related entries, the NP40-soluble protein abundance was determined as 0.963 ± 0.075.
Then UniProt Q9UI12 and related entries, with 1.01 ± 0.032.
The value for NAGK (UniProt Q9UJ70) was 1.01 ± 0.018.
Then ATXN10 (UniProt Q9UBB4), with 0.951 ± 0.035; and “Q9UBK7-2|Q9UNT1-2 (UniProt Q9UNT1+Q9UBK7)”, with 0.991 ± 0.046; and “UniProt Q9UBB6-2|Q9UBB6 and related entries”, with 0.957 ± 0.025.

Source of the values: the supplement of paper PMC6411743.
